# Values quoted from earlier work in patent publication US11174267B2, “Spiroindolinones and therapeutic uses thereof” (The Regents of the University of California, priority 2015, dated 2021).
# Read-outs that look alike come from different tables or passages of the source. Some of these results come from one statement about several compounds together. For at least one compound, name, drawing or mass did not settle the structure. Numbered stars: 1 amine (or outer) side, 2 acyl side, 3 side chain; on linkers, the order of the positions; unused ones are H or OH. Bridge positions count the residues as written; N and C are the ends. Square brackets hold non-standard residues; d marks the D form. Peptide text beside a SMILES is read from it. * marks the point of attachment. hTyr(3S-OH,4S-OH,3'-OSO3H) = N[C@H](C(=O)O)[C@H](O)[C@@H](O)c1ccc(O)c(OS(=O)(=O)O)c1; Orn(4R-OH,5R-OH) = O=C([C@H](C[C@@H](O)[C@@H](O)N[*:3])N[*:1])[*:2]; Pro(3S-OH,4S-Me) = C[C@H]1CN[C@H](C(=O)O)[C@H]1O; X1 = CCCCCOc1ccc(-c2cc(-c3ccc(C(=O)*)cc3)no2)cc1; Gln(3R-OH) = NC(=O)C[C@@H](O)[C@H](N)C(=O)O; Hyp = O=C(O)[C@@H]1C[C@@H](O)CN1
# Test system: Candida
# Conditions: cited from earlier work
# [1] = below 1 μg/mL, but not below 0.1 μg/mL
Compound,MIC90 in synergy with fluconazole [1],FIC indices with fluconazole,also measured
c1ccc([Se][Se]c2ccccc2)cc1 [diphenyldiselenide],below 1 μg/mL,,
C[n+]1cc2c3c(ccc2c2ccc4cc5c(cc4c21)OCO5)OCO3 [sanguinarine],,,MIC90 in synergy with fluconazole: below 1 μg/mL
C[C@@H]1[C@H](O)[C@@H](C)/C=C/C=C/CC/C=C/C=C/C=C/C=C/C(O[C@H]2O[C@H](C)[C@@H](O)[C@H](N)[C@@H]2O)CC2O[C@](O)(CC(O)C(O)CCC(O)CC(O)CC(O)CC(=O)O[C@H]1C)CC(O)C2C(=O)O (stereo partly drawn) [nystatin],below 1 μg/mL,,
CC[C@H](C)C[C@H](C)CCCCCCCCC(=O)N[C@H]1C[C@@H](O)[C@@H](NCCN)NC(=O)[C@@H]2[C@@H](O)CCN2C(=O)[C@H]([C@H](O)CCN)NC(=O)[C@H]([C@H](O)[C@@H](O)c2ccc(O)cc2)NC(=O)[C@@H]2C[C@@H](O)CN2C(=O)[C@H]([C@@H](C)O)NC1=O [caspofungin],,above 1.0,
"CCCCCOc1ccc(-c2cc(-c3ccc(C(=O)N[C@H]4C[C@@H](O)[C@@H](O)NC(=O)[C@@H]5[C@@H](O)[C@@H](C)CN5C(=O)[C@H]([C@H](O)CC(N)=O)NC(=O)[C@H]([C@H](O)[C@@H](O)c5ccc(O)c(OS(=O)(=O)O)c5)NC(=O)[C@@H]5C[C@@H](O)CN5C(=O)[C@H]([C@@H](C)O)NC4=O)cc3)no2)cc1 [Micafungin] (X1-[Orn(4R-OH,5R-OH)]T[Hyp][hTyr(3S-OH,4S-OH,3'-OSO3H)][Gln(3R-OH)][Pro(3S-OH,4S-Me)]; lactam 1-C)",,above 1.0,
tunicamycin,below 1 μg/mL,,
